In patent US10101324B2, “Non-competitive immunoassays to detect small molecules using nanopeptamers” (priority 2012, dated 2018):

Test system: MoAb 14D7
Assay: Noncompetitive nanopeptamer lateral-flow assay for molinate (carbon black-labeled avidin complexed to pA)
Type: binding

CCSC(=O)N1CCCCCC1 [Molinate]
Lowest molinate concentration detectable in spiked runoff water samples (lateral flow, runoff water samples from agricultural areas, all samples): 2.5 ng/mL
Improved sensitivity of the noncompetitive over the competitive lateral flow assay (molinate, 2.5 vs 32 ng/mL): 10 fold
Analyte concentration causing a visible test line over the background (noncompetitive lateral flow, buffer, four independent observers, three repetitions): 2.5 ng/mL
Matrix interference in lateral flow assay (ten runoff water samples of Uruguay spiked with 0, 2.5, 5 and 20 ng/mL molinate, four observers): did not interfere with assay sensitivity
